The record followed here is publication PMC5290284, “Portal protein functions akin to a DNA-sensor that couples genome-packaging to icosahedral capsid maturation” (Nature Communications, 2017).

Protein sequences, listed by entry. Tags and fused reporters are not part of them. Lines headed by an entry give the natural chain unless they say otherwise; changes in a name come on top. Residues count along the entry.
UniProt P26744: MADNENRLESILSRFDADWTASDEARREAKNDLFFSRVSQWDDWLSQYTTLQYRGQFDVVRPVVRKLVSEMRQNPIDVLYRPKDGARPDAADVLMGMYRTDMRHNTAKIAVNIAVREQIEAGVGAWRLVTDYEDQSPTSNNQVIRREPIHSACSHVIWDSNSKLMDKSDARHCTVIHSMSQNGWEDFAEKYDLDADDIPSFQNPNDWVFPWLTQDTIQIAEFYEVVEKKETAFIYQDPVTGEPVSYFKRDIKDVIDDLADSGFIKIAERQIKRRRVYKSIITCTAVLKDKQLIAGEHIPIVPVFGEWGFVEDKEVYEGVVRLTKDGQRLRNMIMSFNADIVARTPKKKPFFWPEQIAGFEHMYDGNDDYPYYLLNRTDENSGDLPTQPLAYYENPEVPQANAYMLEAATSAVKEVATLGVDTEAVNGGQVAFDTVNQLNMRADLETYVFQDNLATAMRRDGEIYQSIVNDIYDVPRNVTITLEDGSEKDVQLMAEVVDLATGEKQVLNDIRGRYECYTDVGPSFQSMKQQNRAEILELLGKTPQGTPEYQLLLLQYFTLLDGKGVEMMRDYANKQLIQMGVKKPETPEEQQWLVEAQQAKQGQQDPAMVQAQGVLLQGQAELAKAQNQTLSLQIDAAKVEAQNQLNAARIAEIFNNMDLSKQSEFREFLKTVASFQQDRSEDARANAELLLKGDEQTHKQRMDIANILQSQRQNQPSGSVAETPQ
UniProt P26745, residues 1-482: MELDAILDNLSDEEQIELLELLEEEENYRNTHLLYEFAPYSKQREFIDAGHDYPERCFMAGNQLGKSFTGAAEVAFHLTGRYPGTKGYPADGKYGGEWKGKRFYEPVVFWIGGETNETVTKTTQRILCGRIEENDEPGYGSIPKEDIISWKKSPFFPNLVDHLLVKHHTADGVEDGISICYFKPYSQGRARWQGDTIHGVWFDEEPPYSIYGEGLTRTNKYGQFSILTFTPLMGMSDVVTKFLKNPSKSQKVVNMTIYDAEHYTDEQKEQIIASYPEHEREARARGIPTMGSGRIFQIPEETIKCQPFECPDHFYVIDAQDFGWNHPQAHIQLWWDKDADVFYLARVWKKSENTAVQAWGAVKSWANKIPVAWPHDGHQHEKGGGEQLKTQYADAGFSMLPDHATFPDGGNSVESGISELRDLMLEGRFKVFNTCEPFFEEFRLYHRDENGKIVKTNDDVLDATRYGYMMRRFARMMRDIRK

The assay addresses P22 PC-portal rings coupled to CNBr-activated Sepharose beads (bacteriophage P22) (UniProt P26744). As to the kind of experiment: pull-down; PC- or MV-portal rings immobilized on CNBr-activated Sepharose 4B beads; soluble protein added (L-terminase pre-complexed with non-hydrolyzable ATP); bound and unbound fractions on SDS–PAGE; both purified.

Results are given in words; binding and its absence hold for the method and conditions named.

Take “Truncated ΔC-L-terminase (res. 1–482) (from UniProt P26745 1-482) (domain or fragment)”: the binding entry is on record as “no binding”.
